{"source": "paper PMC9610999", "about": "“Itraconazole-Induced Increases in Gilteritinib Exposure Are Mediated by CYP3A and OATP1B” (Molecules, 2022)", "origin": "cited, not measured here", "key": {"[1]": {"conditions": "cited from earlier work"}, "[2]": {"system": "OATP1B1 uptake vs CYP3A metabolism", "conditions": "OATP1B1 hepatic uptake vs CYP3A metabolism; cited from earlier work"}}, "data": [{"smiles": "CC(C)c1c(C(=O)Nc2ccccc2)c(-c2ccccc2)c(-c2ccc(F)cc2)n1CC[C@@H](O)C[C@@H](O)CC(=O)O", "note": "[atorvastatin]", "values": [{"measurement": "Increase in dose-normalized AUC of atorvastatin", "setting": "[1]; co-administered with a single dose of rifampicin (an OATP1B inhibitor)", "result": 12, "unit": "fold"}, {"measurement": "Change in dose-normalized AUC of atorvastatin", "setting": "[1]; pre-treatment with itraconazole", "result": "did not change"}, {"measurement": "Sensitivity to inhibition of uptake transport relative to the metabolic pathway", "setting": "[2]", "result": "~ 6 fold"}]}]}
